Data from the primary screen of doi:10.1371/journal.pone.0140310, rounded.

Drugs:
fludarabine: Nc1nc(F)nc2c1ncn2[C@@H]1O[C@H](CO)[C@@H](O)[C@@H]1O at 1000 nM
SNS-032: CC(C)(C)c1cnc(CSc2cnc(NC(=O)C3CCNCC3)s2)o1 at 50 nM
JZL184: O=C(Oc1ccc([N+](=O)[O-])cc1)N1CCC(C(O)(c2ccc3c(c2)OCO3)c2ccc3c(c2)OCO3)CC1 at 5000 nM
STA-4783: CN(NC(=O)CC(=O)NN(C)C(=S)c1ccccc1)C(=S)c1ccccc1 at 30 nM
OSU-03012: NCC(=O)Nc1ccc(-n2nc(C(F)(F)F)cc2-c2ccc3c(ccc4ccccc43)c2)cc1 at 5000 nM
SNS-314: O=C(Nc1cccc(Cl)c1)Nc1ncc(CCNc2ncnc3ccsc23)s1 at 4 nM
lapatinib: CS(=O)(=O)CCNCc1ccc(-c2ccc3ncnc(Nc4ccc(OCc5cccc(F)c5)c(Cl)c4)c3c2)o1 at 4000 nM
GW0742: Cc1cc(SCc2sc(-c3ccc(C(F)(F)F)c(F)c3)nc2C)ccc1OCC(=O)O at 10000 nM

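Human melanoma cell lines in 1,536-well plates were treated with two drugs together for 72 h, then fixed, stained and imaged. Values are the share of nuclei positive for cleaved PARP as a percentage of the same share in the DMSO control: 100 is the control level, higher means more apoptosis. Concentrations were fixed for each drug; these are the higher of two levels. No replicate spread is given; individual values may be noisy. Basal and induced levels differ widely between cell lines.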 An unselected part of the screen is shown. A dash means that no value is listed here.

Combination,IPC-298,WM1745,COLO 792,COLO 800,A2058,RVH-421,UACC-257,MeWo,MEL-HO,501mel,WM3526,WM1716,SK-MEL-30,A101D,SK-MEL-2
GW0742 + SNS-314,102,145,251,361,172,234,56.4,131,67.2,71.5,102,144,87.7,42.7,170
SNS-032 + GW0742,160,130,29.6,172,140,34.6,18.0,70.6,42.5,127,119,110,170,157,316
OSU-03012 + GW0742,83.2,142,193,83.2,129,59.1,84.3,105,61.4,5480,440,138,1370,122,1440
JZL184 + fludarabine,93.3,-,93.6,92.6,50.8,328,853,108,100,3140,2600,126,699,36.1,4290
SNS-314 + SNS-032,49.2,227,143,223,140,60.0,80.3,120,50.8,-,117,117,86.8,411,334
lapatinib + SNS-032,231,132,149,206,129,46.6,151,90.2,150,-,241,78.0,174,538,201
OSU-03012 + JZL184,68.9,109,84.2,34.0,101,101,60.3,94.8,192,546,274,36.8,563,103,305
SNS-032 + fludarabine,49.1,88.1,181,17.1,64.9,97.4,2810,94.0,83.0,-,2360,83.5,1130,213,3510
fludarabine + STA-4783,198,185,1120,277,3160,64.3,4990,906,185,-,5560,129,1990,90.1,3990
lapatinib + JZL184,96.2,-,194,88.0,104,188,59.4,140,98.6,282,137,137,183,165,112
GW0742 + STA-4783,157,489,1760,185,1870,51.5,42.8,402,128,1440,103,120,85.7,94.4,65.7
OSU-03012 + lapatinib,135,134,436,423,259,156,94.0,121,352,-,636,85.1,1030,3700,470
JZL184 + SNS-314,74.6,273,194,202,228,215,20.8,100,135,55.8,96.3,106,118,64.3,280
OSU-03012 + SNS-314,362,264,323,363,216,37.6,52.9,70.8,127,-,364,225,452,124,542
GW0742 + JZL184,42.4,92.8,248,88.6,91.9,151,61.5,78.0,86.7,117,103,116,39.0,148,112
fludarabine + GW0742,69.8,-,166,60.8,77.9,103,3390,129,124,1350,2800,93.7,798,73.5,946
JZL184 + SNS-032,360,135,65.5,164,158,92.9,64.6,172,49.5,488,167,243,199,284,222
SNS-314 + fludarabine,193,247,210,87.6,188,76.6,7220,100,369,-,3030,164,594,44.4,285
SNS-314 + STA-4783,67.5,277,579,310,825,189,96.6,1110,129,-,150,118,150,383,-
JZL184 + STA-4783,169,507,1980,128,2000,227,17.0,2380,55.0,12300,56.5,52.7,147,124,35.0
lapatinib + STA-4783,63.9,212,543,235,1780,109,31.8,2450,113,-,56.3,63.1,275,184,85.4
fludarabine + lapatinib,72.9,129,287,161,142,75.0,6420,44.8,232,-,1720,37.0,2540,94.8,1520
fludarabine + OSU-03012,148,222,212,71.6,110,102,4730,61.7,96.1,-,5210,41.5,1550,100,2310
STA-4783 + SNS-032,69.7,485,478,280,1860,164,54.6,2770,88.5,-,318,326,221,223,510

Some entries from above, unchanged:

| Combination | IPC-298 | WM1745 | COLO 792 | COLO 800 | A2058 | RVH-421 | UACC-257 | MeWo | MEL-HO | 501mel | WM3526 | WM1716 | SK-MEL-30 | A101D | SK-MEL-2 |
|---|---|---|---|---|---|---|---|---|---|---|---|---|---|---|---|
| GW0742 + SNS-314 | 102 | 145 | 251 | 361 | 172 | 234 | 56.4 | 131 | 67.2 | 71.5 | 102 | 144 | 87.7 | 42.7 | 170 |
| SNS-032 + fludarabine | 49.1 | 88.1 | 181 | 17.1 | 64.9 | 97.4 | 2810 | 94.0 | 83.0 | - | 2360 | 83.5 | 1130 | 213 | 3510 |